# In the supplement of paper PMC8728848:
# The list shows a part of the results.
# B1: EUL D1A second (Oryza sativa) (protein)
# chain: GAATACTIGGVPVHTVRVFSAAGEDYCLTVRNGTACLAPKNPRDDYQHWIKDMRHSNKIRDEEGYPAFALVNKVTGEAIKHSTGQGHPVKLVPYNPEYQDESVLWTESKDVGKGFRCIRMVNNIYLNFDAFHGDKDHGGIHDGTEIVLWKWCEGDNQRWKILPWILEQKLISEEDLNSAVDHHHHHH
# Columns and labels:
# Test in all cases: glycan array binding signal (z-score within array); higher = stronger binding
# Details in all cases: glycan notation: IUPAC condensed, linker removed
# [1] = biological target: Man(a1-2)Man(a1-3)[Man(a1-2)Man(a1-6)]Man(a1-6)[Man(a1-2)Man(a1-2)Man(a1-3)]Man
# Procedure, shortened: (§1)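 The Consortium for Functional Glycomics database supplied 3228 glycan arrays, of which those lacking an available protein sequence were dropped. The binding signal, a within-array Z-score, was averaged across arrays of the same protein sequence and across linkers. Negative scores can be read as non-binding.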
# [2] = biological target: Man(a1-2)Man(a1-3)[Man(a1-2)Man(a1-6)]Man(a1-6)[Man(a1-2)Man(a1-2)Man(a1-3)]Man(b1-4)GlcNAc(b1-4)GlcNAc
# Procedure, shortened: as §1
# [3] = biological target: Man(a1-2)Man(a1-3)[Man(a1-6)]Man(a1-6)[Man(a1-2)Man(a1-3)]Man(b1-4)GlcNAc(b1-4)GlcNAc
# Procedure, shortened: as §1
# [4] = biological target: Man(a1-2)Man(a1-6)[Man(a1-3)]Man(a1-6)[Man(a1-2)Man(a1-2)Man(a1-3)]Man
# Procedure, shortened: as §1
# [5] = biological target: Man(a1-2)Man(a1-6)[Man(a1-3)]Man(a1-6)[Man(a1-2)Man(a1-2)Man(a1-3)]Man(b1-4)GlcNAc(b1-4)GlcNAc
# Procedure, shortened: as §1
# Man(a1-3)[Man(a1-6)]Man = biological target: Man(a1-3)[Man(a1-6)]Man
# Procedure, shortened: as §1
# [6] = biological target: Man(a1-3)[Man(a1-6)]Man(a1-6)[Man(a1-2)Man(a1-3)]Man(b1-4)GlcNAc(b1-4)GlcNAc
# Procedure, shortened: as §1
# [7] = biological target: Man(a1-3)[Man(a1-6)]Man(a1-6)[Man(a1-3)]Man
# Procedure, shortened: as §1
# [8] = biological target: Man(a1-3)[Man(a1-6)]Man(a1-6)[Man(a1-3)]Man(b1-4)GlcNAc(b1-4)GlcNAc
# Procedure, shortened: as §1
# [9] = biological target: Man(a1-3)[Man(a1-6)]Man(b1-4)GlcNAc(b1-4)GlcNAc
# Procedure, shortened: as §1
# [10] = biological target: Man(a1-3)[Man(a1-6)]Man(b1-4)GlcNAc(b1-4)[Fuc(a1-6)]GlcNAc
# Procedure, shortened: as §1
# Man(a1-6)Man = biological target: Man(a1-6)Man
# Procedure, shortened: as §1
# Man(b1-4)GlcNAc = biological target: Man(b1-4)GlcNAc
# Procedure, shortened: as §1
# MurNAc(b1-4)GlcNAc = biological target: MurNAc(b1-4)GlcNAc
# Procedure, shortened: as §1
# Neu5Ac(a2-3)Gal = biological target: Neu5Ac(a2-3)Gal
# Procedure, shortened: as §1
# [11] = biological target: Neu5Ac(a2-3)Gal(b1-3)GalNAc
# Procedure, shortened: as §1
# [12] = biological target: Neu5Ac(a2-3)Gal(b1-3)GalNAc(b1-3)Gal(a1-4)Gal(b1-4)Glc
# Procedure, shortened: as §1
# [13] = biological target: Neu5Ac(a2-3)Gal(b1-3)GalNAc(b1-4)Gal(b1-4)Glc
# Procedure, shortened: as §1
# [14] = biological target: Neu5Ac(a2-3)Gal(b1-3)GalNAc(b1-4)[Neu5Ac(a2-3)]Gal(b1-4)Glc
# Procedure, shortened: as §1
# [15] = biological target: Neu5Ac(a2-3)Gal(b1-3)GalNAc(b1-4)[Neu5Ac(a2-8)Neu5Ac(a2-3)]Gal(b1-4)Glc
# Procedure, shortened: as §1
# [16] = biological target: Neu5Ac(a2-3)Gal(b1-3)GalNAc6S
# Procedure, shortened: as §1
# [17] = biological target: Neu5Ac(a2-3)Gal(b1-3)GlcNAc
# Procedure, shortened: as §1
# [18] = biological target: Neu5Ac(a2-3)Gal(b1-3)GlcNAc(b1-2)Man
# Procedure, shortened: as §1
# [19] = biological target: Neu5Ac(a2-3)Gal(b1-3)GlcNAc(b1-2)Man(a1-3)[GlcNAc(b1-4)][Neu5Ac(a2-3)Gal(b1-3)GlcNAc(b1-2)Man(a1-6)]Man(b1-4)GlcNAc(b1-4)GlcNAc
# Procedure, shortened: as §1
# [20] = biological target: Neu5Ac(a2-3)Gal(b1-3)GlcNAc(b1-2)Man(a1-3)[Neu5Ac(a2-3)Gal(b1-3)GlcNAc(b1-2)Man(a1-6)]Man(b1-4)GlcNAc(b1-4)GlcNAc
# Procedure, shortened: as §1
# [21] = biological target: Neu5Ac(a2-3)Gal(b1-3)GlcNAc(b1-2)[Neu5Ac(a2-3)Gal(b1-3)GlcNAc(b1-4)]Man(a1-6)[Neu5Ac(a2-3)Gal(b1-3)GlcNAc(b1-2)Man(a1-3)]Man(b1-4)GlcNAc(b1-4)GlcNAc
# Procedure, shortened: as §1
# [22] = biological target: Neu5Ac(a2-3)Gal(b1-3)GlcNAc(b1-3)Gal(b1-3)GlcNAc
# Procedure, shortened: as §1
# [23] = biological target: Neu5Ac(a2-3)Gal(b1-3)GlcNAc(b1-3)Gal(b1-4)GlcNAc
# Procedure, shortened: as §1
# [24] = biological target: Neu5Ac(a2-3)Gal(b1-3)GlcNAc(b1-3)GalNAc
# Procedure, shortened: as §1
# [25] = biological target: Neu5Ac(a2-3)Gal(b1-3)GlcNAc(b1-6)GalNAc
# Procedure, shortened: as §1
# [26] = biological target: Neu5Ac(a2-3)Gal(b1-3)GlcNAc6S
# Procedure, shortened: as §1
# [27] = biological target: Neu5Ac(a2-3)Gal(b1-3)[Fuc(a1-4)]GlcNAc
# Procedure, shortened: as §1
# [28] = biological target: Neu5Ac(a2-3)Gal(b1-3)[Fuc(a1-4)]GlcNAc(b1-3)Gal(b1-3)[Fuc(a1-4)]GlcNAc
# Procedure, shortened: as §1
# [29] = biological target: Neu5Ac(a2-3)Gal(b1-3)[Fuc(a1-4)]GlcNAc(b1-3)Gal(b1-4)[Fuc(a1-3)]GlcNAc
# Procedure, shortened: as §1
# [30] = biological target: Neu5Ac(a2-3)Gal(b1-3)[GlcNAc(b1-6)]GalNAc
# Procedure, shortened: as §1
# [31] = biological target: Neu5Ac(a2-3)Gal(b1-3)[Neu5Ac(a2-6)]GalNAc
# Procedure, shortened: as §1
# [32] = biological target: Neu5Ac(a2-3)Gal(b1-3)[Neu5Ac(a2-6)]GlcNAc(b1-3)[Fuc(a1-3)[Gal(b1-4)]GlcNAc(b1-6)]Gal(b1-4)Glc
# Procedure, shortened: as §1
# [33] = biological target: Neu5Ac(a2-3)Gal(b1-3)]Neu5Ac(a2-3)Gal(b1-4)]GlcNAc
# Procedure, shortened: as §1
# Neu5Ac(a2-3)Gal(b1-4)Glc = biological target: Neu5Ac(a2-3)Gal(b1-4)Glc
# Procedure, shortened: as §1
# [34] = biological target: Neu5Ac(a2-3)Gal(b1-4)GlcNAc
# Procedure, shortened: as §1
# [35] = biological target: Neu5Ac(a2-3)Gal(b1-4)GlcNAc(b1-2)Man
# Procedure, shortened: as §1
# [36] = biological target: Neu5Ac(a2-3)Gal(b1-4)GlcNAc(b1-2)Man(a1-3)[GlcNAc(b1-4)][Neu5Ac(a2-3)Gal(b1-4)GlcNAc(b1-2)Man(a1-6)]Man(b1-4)GlcNAc(b1-4)GlcNAc
# Procedure, shortened: as §1
# [37] = biological target: Neu5Ac(a2-3)Gal(b1-4)GlcNAc(b1-2)Man(a1-3)[Neu5Ac(a2-3)Gal(b1-4)GlcNAc(b1-2)Man(a1-6)]Man(b1-4)GlcNAc(b1-4)GlcNAc
# Procedure, shortened: as §1
# [38] = biological target: Neu5Ac(a2-3)Gal(b1-4)GlcNAc(b1-2)Man(a1-3)[Neu5Ac(a2-3)Gal(b1-4)GlcNAc(b1-2)Man(a1-6)]Man(b1-4)GlcNAc(b1-4)[Fuc(a1-6)]GlcNAc
# Procedure, shortened: as §1
# [39] = biological target: Neu5Ac(a2-3)Gal(b1-4)GlcNAc(b1-2)Man(a1-3)[Neu5Ac(a2-6)Gal(b1-4)GlcNAc(b1-2)Man(a1-6)]Man(b1-4)GlcNAc(b1-4)GlcNAc
# Procedure, shortened: as §1
binder,measurement,setting,value
B1,glycan array binding signal (z-score),[1],-0.985
same,glycan array binding signal (z-score),[2],1.93
same,glycan array binding signal (z-score),[3],-0.104
same,glycan array binding signal (z-score),[4],0.706
same,glycan array binding signal (z-score),[5],-0.175
same,glycan array binding signal (z-score),Man(a1-3)[Man(a1-6)]Man,-1.19
same,glycan array binding signal (z-score),[6],-0.941
same,glycan array binding signal (z-score),[7],-0.871
same,glycan array binding signal (z-score),[8],0.115
same,glycan array binding signal (z-score),[9],-0.971
same,glycan array binding signal (z-score),[10],0.718
same,glycan array binding signal (z-score),Man(a1-6)Man,-0.62
same,glycan array binding signal (z-score),Man(b1-4)GlcNAc,-0.316
same,glycan array binding signal (z-score),MurNAc(b1-4)GlcNAc,-0.391
same,glycan array binding signal (z-score),Neu5Ac(a2-3)Gal,-0.835
same,glycan array binding signal (z-score),[11],0.973
same,glycan array binding signal (z-score),[12],-0.441
same,glycan array binding signal (z-score),[13],-1.04
same,glycan array binding signal (z-score),[14],1.45
same,glycan array binding signal (z-score),[15],1.87
same,glycan array binding signal (z-score),[16],0.821
same,glycan array binding signal (z-score),[17],-0.337
same,glycan array binding signal (z-score),[18],3.06
same,glycan array binding signal (z-score),[19],-2.14
same,glycan array binding signal (z-score),[20],0.852
same,glycan array binding signal (z-score),[21],0.413
same,glycan array binding signal (z-score),[22],-0.077
same,glycan array binding signal (z-score),[23],-1.25
same,glycan array binding signal (z-score),[24],1.2
same,glycan array binding signal (z-score),[25],-0.587
same,glycan array binding signal (z-score),[26],-0.896
same,glycan array binding signal (z-score),[27],0.596
same,glycan array binding signal (z-score),[28],1.27
same,glycan array binding signal (z-score),[29],0.637
same,glycan array binding signal (z-score),[30],0.412
same,glycan array binding signal (z-score),[31],0.217
same,glycan array binding signal (z-score),[32],1.26
same,glycan array binding signal (z-score),[33],0.297
same,glycan array binding signal (z-score),Neu5Ac(a2-3)Gal(b1-4)Glc,0.304
same,glycan array binding signal (z-score),[34],-0.808
same,glycan array binding signal (z-score),[35],-0.036
same,glycan array binding signal (z-score),[36],-0.287
same,glycan array binding signal (z-score),[37],-0.033
same,glycan array binding signal (z-score),[38],-0.892
same,glycan array binding signal (z-score),[39],0.14

# An excerpt of these results, as tab-separated lines:
binder	measurement	setting	value
B1	glycan array binding signal (z-score)	[20]	0.852
same	glycan array binding signal (z-score)	[21]	0.413
same	glycan array binding signal (z-score)	[22]	-0.077
same	glycan array binding signal (z-score)	[23]	-1.25
